This note sets out measurements from article PMC5718554.

This assay has as its target CHOP_(1-120) (C/EBP-homologous protein, N-terminal and basic regions, residues 1 to 120) (human) (UniProt P35638). Description: AUC; sedimentation equilibrium (short column, 20 and 24 krpm, single species model) and sedimentation velocity (48 krpm), 20°C, protein at 1.08 mg/ml, absorbance at 280 nm; both purified.

Results are given in words; binding and its absence hold for the method and conditions named.

B1: CHOP_(1-120) (C/EBP-homologous protein, N-terminal and basic regions, residues 1 to 120) (domain or fragment, UniProt P35638 1-120)
chain: MAAESLPFSFGTLSSWELEAWYEDLQEVLSSDENGGTYVSPPGNEEEESKIFTTLDPASLAWLTEEEPEPAEVTSTSQSPHSPDSSQSSLAQEEEEEDQGRTRKRKQSGHSPARAGKQRM
On to B1, for which the binding result is on record as “no binding (tested: 1.08 mg/ml)”.
